Results deposited as PubChem BioAssay AID1159578 (Peter MacCallum Cancer Centre, 2015)

Assay: 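Genome-wide hunt for genes controlling movement of lymphatic endothelial cells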 (primary screen)
Cell system: human lymphatic endothelial cells
Knock-down reagent: siRNA pool against human genes, 40 nM
Time to read-out: 48 h after transfection
Read-out: 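High-content imaging of dye-stained cells in a scratch assay measures filled wound area and nuclei per well; duplicate means given as ratio to mock and robust z-score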
Reading the numbers: migration robust z-score: higher = faster migration into the scratch; migration relative to mock: higher = more scratch area covered than mock; nuclei per well: higher = more cells in the well
Active means: 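Migration changed when robust z exceeds 2 or falls below -2 and mean nuclei number is at least 3300; otherwise not called changed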
Calls: active = migration changed; inactive = no migration change, or too few cells
In all, the deposit lists about 18,000 reagents; shown is an unselected part. In the full data, about 1,030 (5.7%) were called active. 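Inactive calls also include pools with fewer than 3300 nuclei, whose migration was not assessed.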 Raw values vary from plate to plate and are shown uncorrected. Unmarked entries are inactive. No sequences are given here.

gene | migration robust z-score | migration class with cell-count check | migration relative to mock | nuclei per well, duplicate mean
CILK1 (ciliogenesis associated kinase 1) | 0.16 | migration z between -2 and 2; enough cells | 0.84 | 5299
CDK2AP1 (cyclin dependent kinase 2 associated protein 1) | -2.1 (active) | migration z below -2; enough cells | 0.4 | 5628
NAP1L2 (nucleosome assembly protein 1 like 2) | 0.71 | migration z between -2 and 2; enough cells | 1.07 | 5686
MGMT (O-6-methylguanine-DNA methyltransferase) | -0.39 | migration z between -2 and 2; enough cells | 0.78 | 7699
CD200R1 (CD200 receptor 1) | -0.85 | migration z between -2 and 2; enough cells | 0.66 | 5546
PUS7L (pseudouridine synthase 7 like) | 1.74 | migration z between -2 and 2; enough cells | 1.33 | 5066
DPYSL3 (dihydropyrimidinase like 3) | 0.83 | migration z between -2 and 2; enough cells | 0.97 | 6355
OR52N2 (olfactory receptor family 52 subfamily N member 2) | -0.26 | migration z between -2 and 2; enough cells | 0.82 | 3973
NALF1 (NALCN channel auxiliary factor 1) | 0.5 | migration z between -2 and 2; enough cells | 1.02 | 5634
AMMECR1 (AMMECR nuclear protein 1) | 0.23 | migration z between -2 and 2; enough cells | 0.95 | 5550
CEMP1 (cementum protein 1) | 1.04 | migration z between -2 and 2; enough cells | 1.16 | 6272
KRTAP13-3 (keratin associated protein 13-3) | 1.28 | migration z between -2 and 2; enough cells | 1.22 | 5708
RBPMS (RNA binding protein, mRNA processing factor) | 0.98 | migration z between -2 and 2; enough cells | 1.14 | 4666
HOOK1 (hook microtubule tethering protein 1) | 1.46 | migration z between -2 and 2; enough cells | 1.27 | 6328
C18orf54 (chromosome 18 open reading frame 54) | 1.05 | migration z between -2 and 2; enough cells | 1.16 | 5868
UNC119 (unc-119 lipid binding chaperone) | 1.37 | migration z between -2 and 2; enough cells | 1.24 | 6174
DPYS (dihydropyrimidinase) | -0.43 | migration z between -2 and 2; enough cells | 0.77 | 5798
PCDH12 (protocadherin 12) | 0.04 | migration z between -2 and 2; enough cells | 0.9 | 5202
JAM2 (junctional adhesion molecule 2) | 0.38 | migration z between -2 and 2; enough cells | 0.98 | 5652
CPED1 (cadherin like and PC-esterase domain containing 1) | 1.56 | migration z between -2 and 2; enough cells | 1.29 | 5312
CHST14 (carbohydrate sulfotransferase 14) | -1.69 | migration z between -2 and 2; enough cells | 0.48 | 4286
POLR2F (RNA polymerase II, I and III subunit F) | -1.55 | migration z between -2 and 2; enough cells | 0.5 | 3836
TEKT1 (tektin 1) | 0.92 | migration z between -2 and 2; enough cells | 1.12 | 5800
